According to PubChem BioAssay (Tox21):
Shown are results outside the selection of hits, which stands elsewhere. Inconclusive results are not listed. Activity calls are given as the source filed them. Calls follow the shape of the dose curve; as a rule, active = well fitted inhibition curve with a large enough effect in the repeat runs; inconclusive = weak or mixed curves; inactive = no such curve, though single readings can be large or run the other way.

By UniProt entry, the sequences of proteins in these tests, tags left out. Where a name states a change or a piece, a line headed by the entry shows the natural chain unless it says otherwise.
UniProt P11511: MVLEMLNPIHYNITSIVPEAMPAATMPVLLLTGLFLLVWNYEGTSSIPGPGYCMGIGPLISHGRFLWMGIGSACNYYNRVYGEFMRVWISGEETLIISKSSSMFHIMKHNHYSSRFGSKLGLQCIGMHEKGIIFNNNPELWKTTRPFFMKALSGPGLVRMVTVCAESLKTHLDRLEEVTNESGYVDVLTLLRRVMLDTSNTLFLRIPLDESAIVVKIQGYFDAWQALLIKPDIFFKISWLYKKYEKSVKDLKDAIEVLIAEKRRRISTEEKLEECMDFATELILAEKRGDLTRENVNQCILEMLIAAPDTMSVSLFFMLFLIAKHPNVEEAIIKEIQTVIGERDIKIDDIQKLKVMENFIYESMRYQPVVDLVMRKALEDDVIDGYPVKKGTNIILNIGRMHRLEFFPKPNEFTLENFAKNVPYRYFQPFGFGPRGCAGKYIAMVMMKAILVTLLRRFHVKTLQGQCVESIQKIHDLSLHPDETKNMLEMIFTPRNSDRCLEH

Target: Aromatase (Homo sapiens) (UniProt P11511)
Test: qHTS assay to identify aromatase inhibitors (AID 743083); also: nearly all actives have a fitted effect of over 55% in size
Conditions: MCF-7 aro ERE, testosterone-driven ERE luciferase, 24 h
% is scaled to controls: 0 for no effect and ±100 for the full control effect.

With `CN1C(=O)CN=C(c2ccccc2)c2cc(Cl)ccc21` the activity, negative = inhibition (at 70.3 µM (top of the series)) was inactive: 37.7% and the activity, negative = inhibition (at 95 µM (top of the series)) was inactive: 20.6%.
